Assay [1] in a line: qHTS assay for small molecule antagonists of androgen receptor signaling (AID 588516). To be noted: AR-UAS-bla HEK293, beta-lactamase ratio, antagonist mode, 16 h. In short, it runs like this:
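Antagonist mode: inhibition of R1881-stimulated (10 nM final) bla reporter in GeneBLAzer AR HEK 293 cells, 16 h at 37C, compounds titrated. IC50 and efficacy from Hill-equation fits of 405/460–530 nm FRET ratios.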
Background: Quantitative high-throughput screening tests each substance at several concentrations.

Assay [2] can be described thus: qHTS assay for small molecule antagonists of peroxisome proliferator-activated receptor gamma signaling (AID 588537). The conditions noted are these: HEK293 PPARg-UAS-bla, beta-lactamase ratio, antagonist mode; measured here: W460 blue channel. Summed up: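 Read-out: CCF4 fluorescence (ex 405, em 460/530 nm) after 2 h at RT. Cells were HEK293 carrying a UAS-bla reporter and treated 16 h at 37 C with compound plus rosiglitazone (50 nM final). Normalized to rosiglitazone and DMSO.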

Assay [3] can be described thus: qHTS assay for small molecule antagonists of vitamin D receptor signaling (AID 588541). To be noted: HEK293T VDR-UAS-bla, beta-lactamase ratio, antagonist mode; measured here: W460 blue channel (cell viability).
Assay [4] is described as follows: qHTS assay for small molecule agonists of retinoid X receptor alpha signaling (AID 588544). To be noted: HEK293T RXRa-UAS-bla, beta-lactamase reporter, 18 h; 530 nm emission.
The nature of assay [5]: qHTS assay for small molecule antagonists of retinoid X receptor alpha signaling (AID 588546).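 Further: cells stimulated with 9-cis-retinoic acid as agonist; on the % scale 0 is the no-effect control and ±100 the full control effect.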 To be noted: HEK293T RXRa-UAS-bla, beta-lactamase ratio, antagonist mode; measured here: W530 green channel, cytotoxicity proxy. Summed up:
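Beta-lactamase reporter inhibition, read as CCF4 fluorescence ratio (ex 405, em 460/530 nm) after 2 h at RT. HEK293T UAS-bla cells, 2500/well, were stimulated with 9-cis-RA at 500 or 100 nM final alongside test compound for 18 h at 37 C.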

Assay [6] in a line: qHTS assay for small molecule antagonists of glucocorticoid receptor signaling (AID 588533). To be noted: HeLa MMTV-bla, GRE beta-lactamase ratio, antagonist mode, 18 h; measured here: W530 channel AC50.
Assay [7] is described as follows: qHTS assay for small molecule antagonists of peroxisome proliferator-activated receptor delta signaling (AID 588535).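 Further: cells co-treated with a PPAR-delta agonist as stimulator during compound exposure.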 The conditions noted are these: HEK293T PPARd-UAS-bla, beta-lactamase FRET ratio, 18 h; 460 nm channel. Summed up: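 Beta-lactamase reporter read-out (405 nm excitation, 460/530 nm emission) after CCF4 loading for 2 hrs at RT. HEK293T PPAR-delta-UAS-bla cells, 2% charcoal/dextran FBS, compounds for 18 hrs at 37 C. Hill fit gave IC50 and efficacy.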

[8] abbreviates: measured here: W460 blue channel fit.
[9] abbreviates: measured here: W530 green channel, cytotoxicity/artifact.

Where “and” joins values, the source holds several entries; their conditions need not be identical. Equal values may be shown once. This is one part of the list. These are further read-outs of the screen, such as a control signal, another cell line or another target. No call is given for them. The list favours compounds with an active or inconclusive main result. For part of these data: The note in brackets gives the kind of curve behind each potency; many fits are weak.

As a reminder, the AC50 is the midpoint of the concentration-response curve, whichever way the signal moves.

With `CCC[CH2][Sn]1([CH2]CCC)[O]C(=O)C=CC(=O)[O]1`, the AC50 was 7.94 µM [falling, full curve] in assay [1] (setting [8]); 39.8 µM [rising, partial curve] in assay [1] (setting [9]); 44.7 µM [falling, partial curve] in assay [2]; 5.01 µM [falling, full curve] in assay [3]. Besides, the values for the max response in assay [4] and in assay [5] were 39.8% and 44.4%, respectively.
As to `Oc1cc(Cl)c(Cl)c(Cl)c1`, the AC50 is 50.1 µM [rising, single point] in assay [1] (setting [9]) and 17.8 µM [falling, partial curve, poor fit] in assay [6]. For the same molecule, the values for the max response in assay [4] and in assay [5] were 8.93% and -11.8%, respectively.
Consider `CCC[CH2][Sn]([CH2]CCC)[CH2]CCC`, for which the AC50 in assay [1] (setting [9]) is 2.82 µM [rising, partial curve, poor fit]; in assay [6] it was 39.8 µM [falling, partial curve, poor fit]; in assay [3] it was 15.8 µM [falling, full curve]. Besides, the max response in assay [7] was -81.5%; in assay [4] it was -27.3%; in assay [5] it was -52.4%.
For `c1ccc2c(c1)-c1cccc3c1c-2cc1ccccc13`, the AC50 in assay [6] was 39.8 µM [rising, partial curve, poor fit]; in assay [2] it was 44.7 µM [rising, partial curve]; in assay [3], 35.5 µM [rising, partial curve] and 50.1 µM [rising, single point]. Besides, the max response in assay [7] was 559% and 539%; in assay [4] it was 136% and 64.8%; in assay [5], 99.7% and 65.5%.
Turning to `CCCCCC[N+](=O)[O-]`, the half-maximal activity concentration (AC50) in assay [1] (setting [8]) is 0.0355 µM [falling, full curve, poor fit]; in assay [2] it was 0.0398 µM [falling, full curve, poor fit]. Besides, the max response in assay [7] was -26.1%.
On to `Nc1c(Br)cc([N+](=O)[O-])cc1[N+](=O)[O-]`, for which, in assay [1] (setting [8]), the AC50 is 22.4 µM [falling, partial curve, poor fit]. Also, in assay [5], the max response is 33.1%.
Consider `C=CC(=O)OCCCCCC(C)C`, for which the concentration at half-maximal activity (AC50) was 25.1 µM [rising, full curve, poor fit] in assay [1] (setting [8]) and 0.2 µM [falling, full curve, poor fit] in assay [2].
With `CCOc1nc(NC)nc(NC(=O)NS(=O)(=O)c2ccccc2C(=O)OC)n1`, the AC50 in assay [1] (setting [8]) is 0.00141 µM [falling, full curve, poor fit]. The max response in assay [4] is -3.18%.
Consider `CC1(C)CN=C(NN=C(/C=C/c2ccc(C(F)(F)F)cc2)/C=C/c2ccc(C(F)(F)F)cc2)NC1`, for which the concentration at half-maximal activity (AC50) was 39.8 µM [falling, partial curve, poor fit] in assay [1] (setting [8]); 39.8 µM [falling, partial curve] in assay [6]; 35.5 µM [falling, partial curve, poor fit] in assay [2]; 35.5 µM [falling, partial curve] in assay [3]. The max response in assay [4] is -52.6%; in assay [5], -41.8%.
Consider `CCOP(=O)(OCC)Oc1nc(Cl)c(Cl)cc1Cl`, for which the AC50 in assay [1] (setting [9]) was 31.6 µM [rising, partial curve, poor fit]; in assay [3], 12.6 µM [falling, partial curve, poor fit]. In addition, the max response in assay [7] worked out at 10.1%; in assay [4], 23.9%; in assay [5], 3.51%.
Consider `O=[N+]([O-])c1ccc(Cl)c([N+](=O)[O-])c1`, for which the AC50 was 50.1 µM [falling, single point] in assay [1] (setting [8]) and 44.7 µM [falling, partial curve, poor fit] in assay [3]. The max response in assay [7] is -71.6%; in assay [4] it was -31.7%; in assay [5], -39.6%.
Turning to `CC(C)(C)c1cc(O)ccc1O`, the AC50 in assay [6] was 28.2 µM [falling, partial curve, poor fit] and 44.7 µM [falling, single point]; in assay [2] it was 44.7 µM [rising, single point] and 63.1 µM [falling, partial curve, poor fit]. In addition, the max response in assay [7] was -75.5% and 63.6%; in assay [4], -47.4%; in assay [5], -52.3%.
In the case of `Nc1ccccc1Cl`, the AC50 is 0.0398 µM [falling, full curve, poor fit] in assay [1] (setting [8]) and 50.1 µM [rising, single point] in assay [2].
`CCCCC(CC)COC(=O)c1ccc(C(=O)OCC(CC)CCCC)c(C(=O)OCC(CC)CCCC)c1` (configuration not stated): the concentration at half-maximal activity (AC50) in assay [1] (setting [8]) was 12.6 µM [falling, partial curve, poor fit]; in assay [2], 70.8 µM [rising, single point]. Besides, in assay [7], the max response is -2%.
As to `Cc1cnc[nH]1`, the AC50 is 50.1 µM [falling, single point] in assay [1] (setting [8]) and 63.1 µM [rising, single point] in assay [2]. Further, in assay [7], the max response was 7.87%.
For the molecule `N#Cc1cc(I)c(O)c(I)c1`, in assay [6], the half-maximal activity concentration (AC50) was 28.2 µM [falling, single point].
Consider `COP(=O)(OC)O/C(=C\Cl)c1cc(Cl)c(Cl)cc1Cl`, for which the AC50 in assay [1] (setting [8]) was 44.7 µM [falling, partial curve, poor fit]; in assay [2], 25.1 µM [falling, partial curve]. Further, the max response is -73.5% in assay [7], 30.1% in assay [4] and 16.8% in assay [5].
Take `CCCCNC(=O)n1c(NC(=O)OC)nc2ccccc21`: the AC50 in assay [1] (setting [8]) is 3.16 µM [falling, full curve, poor fit]; in assay [6], 39.8 µM [falling, partial curve, poor fit]; in assay [2] it was 0.001 µM [falling, full curve, poor fit]; in assay [3], 7.94 µM [falling, partial curve, poor fit]. Further, the max response in assay [4] worked out at 32.5%; in assay [5], 1.11%.

The values above are taken from PubChem BioAssay (NCATS).
